Test results: publication PMC1540706

Protein sequences, listed by entry. Tags and fused reporters are not part of them. Residues count along the entry.
UniProt P63010, residues 700-937: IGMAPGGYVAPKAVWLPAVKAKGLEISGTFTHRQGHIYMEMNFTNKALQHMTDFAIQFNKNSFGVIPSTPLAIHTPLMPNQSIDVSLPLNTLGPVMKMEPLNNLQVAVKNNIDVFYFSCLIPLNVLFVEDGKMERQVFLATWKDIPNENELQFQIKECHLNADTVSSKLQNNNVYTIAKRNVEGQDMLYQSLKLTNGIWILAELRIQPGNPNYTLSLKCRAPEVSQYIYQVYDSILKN
UniProt Q9Y5X1: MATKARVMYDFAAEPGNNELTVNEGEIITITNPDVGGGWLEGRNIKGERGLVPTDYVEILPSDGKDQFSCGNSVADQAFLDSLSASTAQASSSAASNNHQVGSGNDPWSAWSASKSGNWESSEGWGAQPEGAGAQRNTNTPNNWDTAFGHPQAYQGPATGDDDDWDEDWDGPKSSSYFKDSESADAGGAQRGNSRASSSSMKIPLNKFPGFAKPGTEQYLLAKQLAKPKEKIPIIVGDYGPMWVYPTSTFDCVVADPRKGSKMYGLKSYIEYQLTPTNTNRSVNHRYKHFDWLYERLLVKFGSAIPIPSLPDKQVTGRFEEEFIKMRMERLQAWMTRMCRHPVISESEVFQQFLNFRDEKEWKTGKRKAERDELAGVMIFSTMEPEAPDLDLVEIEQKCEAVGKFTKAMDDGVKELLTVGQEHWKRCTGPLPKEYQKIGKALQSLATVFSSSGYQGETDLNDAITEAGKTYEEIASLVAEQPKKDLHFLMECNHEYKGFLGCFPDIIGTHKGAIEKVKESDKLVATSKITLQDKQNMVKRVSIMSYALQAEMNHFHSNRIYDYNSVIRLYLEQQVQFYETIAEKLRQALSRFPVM
UniProt Q15811, residues 1-1220: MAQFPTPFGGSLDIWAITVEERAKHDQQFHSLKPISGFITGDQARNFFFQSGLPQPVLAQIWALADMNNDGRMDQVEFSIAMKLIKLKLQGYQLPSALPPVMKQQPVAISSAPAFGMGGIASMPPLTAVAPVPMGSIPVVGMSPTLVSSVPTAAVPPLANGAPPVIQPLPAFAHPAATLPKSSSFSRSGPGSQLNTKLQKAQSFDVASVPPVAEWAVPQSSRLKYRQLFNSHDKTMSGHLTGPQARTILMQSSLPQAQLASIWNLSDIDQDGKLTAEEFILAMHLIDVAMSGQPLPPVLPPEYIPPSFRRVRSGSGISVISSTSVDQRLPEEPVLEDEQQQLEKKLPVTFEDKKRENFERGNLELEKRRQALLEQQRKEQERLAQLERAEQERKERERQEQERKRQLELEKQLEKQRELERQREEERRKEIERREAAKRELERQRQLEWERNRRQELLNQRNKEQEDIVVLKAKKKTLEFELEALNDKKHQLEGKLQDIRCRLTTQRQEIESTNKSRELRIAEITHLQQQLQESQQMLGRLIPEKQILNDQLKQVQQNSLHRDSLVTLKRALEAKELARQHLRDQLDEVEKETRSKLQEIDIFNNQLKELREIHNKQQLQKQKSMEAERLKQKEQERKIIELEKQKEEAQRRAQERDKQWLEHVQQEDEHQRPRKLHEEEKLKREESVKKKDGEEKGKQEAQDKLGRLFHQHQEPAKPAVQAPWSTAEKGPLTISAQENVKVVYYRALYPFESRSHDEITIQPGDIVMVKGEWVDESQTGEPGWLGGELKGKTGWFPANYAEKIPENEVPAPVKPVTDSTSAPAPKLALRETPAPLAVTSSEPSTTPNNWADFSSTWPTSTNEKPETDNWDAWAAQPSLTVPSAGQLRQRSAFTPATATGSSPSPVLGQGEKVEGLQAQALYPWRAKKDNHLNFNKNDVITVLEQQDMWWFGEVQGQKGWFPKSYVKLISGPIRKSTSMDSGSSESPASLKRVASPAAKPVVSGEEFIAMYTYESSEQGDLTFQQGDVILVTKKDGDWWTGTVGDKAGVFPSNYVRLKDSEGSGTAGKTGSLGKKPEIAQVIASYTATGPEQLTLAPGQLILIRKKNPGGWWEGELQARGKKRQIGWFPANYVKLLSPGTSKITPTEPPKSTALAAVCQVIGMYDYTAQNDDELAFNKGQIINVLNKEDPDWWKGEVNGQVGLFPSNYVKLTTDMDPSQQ
UniProt Q14677: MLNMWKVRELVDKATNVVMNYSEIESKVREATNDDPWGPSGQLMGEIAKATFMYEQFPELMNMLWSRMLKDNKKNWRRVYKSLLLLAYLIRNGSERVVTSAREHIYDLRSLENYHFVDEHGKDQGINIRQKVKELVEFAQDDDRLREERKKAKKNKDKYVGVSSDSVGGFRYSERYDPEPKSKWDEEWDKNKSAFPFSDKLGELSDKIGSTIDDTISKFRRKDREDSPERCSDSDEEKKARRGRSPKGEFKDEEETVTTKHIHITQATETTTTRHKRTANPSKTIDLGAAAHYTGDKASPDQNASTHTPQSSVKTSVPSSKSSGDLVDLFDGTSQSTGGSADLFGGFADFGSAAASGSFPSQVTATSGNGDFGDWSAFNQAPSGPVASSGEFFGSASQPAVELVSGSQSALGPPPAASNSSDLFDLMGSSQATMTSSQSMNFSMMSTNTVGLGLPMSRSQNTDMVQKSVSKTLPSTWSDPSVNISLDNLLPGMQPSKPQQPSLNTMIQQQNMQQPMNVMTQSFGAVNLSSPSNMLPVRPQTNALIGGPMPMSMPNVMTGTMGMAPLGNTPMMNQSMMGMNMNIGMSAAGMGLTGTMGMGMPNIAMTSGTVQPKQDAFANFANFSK

Molecular target: GST-human-β2-appendage (700–937) (human) (UniProt P63010)
Test: affinity purification with mass spectrometry; 30–100 μg GST-appendage on glutathione-sepharose beads in HeLa cell extract (150 mM NaCl, 20 mM HEPES pH 7.4, 2 mM DTT, NP40, 0.1% Tx-100), 1 h at 4 °C, 4 washes; Coomassie bands read by LC-MS/MS; only the target purified

binding, binds:
sorting-nexin9 (from UniProt Q9Y5X1 1-595)
intersectin1 (from UniProt Q15811-2 1-1220)
epsinR (from UniProt Q14677 1-625)
Tom1 (from UniProt O60784-1 1-492)
Hsc70 (from UniProt P11142-1 1-646)

No constants are given. Whether binding was seen depends on the method and setting. In cells and extracts the contact can be indirect. A yes stands for co-enrichment or nearness to the bait. Other partners may have been found.
